Data reported in patent US20230103554A1, “TNFa SIGNALING [sequence] TUMOR-PROMOTING INFLAMMATION THAT CAN BE TARGETED TO THERAPY” (Baylor College of Medicine, priority 2020, published 2023).

Tested on: NB tumor cell gene expression
Test: Eukaryotic mRNA-seq of xenograft tumors
Assay type: in vivo, mouse
Conditions: NB transcripts (uniquely human), two-fold, adjusted P<0.05, vs control tumors
Description: (FIG. 17A) Tumors recovered from mice in FIG. 16 were snap frozen in OTC media, thin sectioned, and stained for murine CD31 expression (red) and DAPI counterstain (blue). Results shown are representative images from five fields of view (FOVs) per tumor, with five tumors per group. Scale bar 50 μm. (FIG. 17B) Total number of CD31+ regions per FOV with box and whisker plot showing quartiles±range (Ctrl n=15, Etan n=25). (FIG. 17C) Size of each CD31+ area quantified per FOV; shown is median CD31+ area per FOV with box and whisker plot showing quartiles±range (Ctrl n=15, Etan n=25) (FIG. 17D) Longest distance across each CD31+ area (Max Feret distance) per FOV; shown is median distance per FOV with box and whisker plot showing quartiles±range (Ctrl n=15, Etan n=25). […]
Total RNA from cell pellets was isolated using the RNeasy Micro Plus Kit (Qiagen). […] Relative changes in gene expression were calculated based on the ΔCt method using housekeeping gene GAPDH as control. […]
Eukaryotic mRNA sequencing with 30M depth and 150 paired end reads was performed by Novogene, Inc. Quality control checks on FASTQ sequencing files were performed by FastQC (v0.11.2, https://www.bioinformatics.babraham.ac.uk/projects/fastqc/). Reads were then aligned to human (GRCh38, Ensembl release version 84) or mouse (GRCm38, Ensembl release version 81) reference genomes separately by hisat2 v2.1.0(51). […]

etanercept
genes downregulated in treated tumors: 117 genes | genes upregulated in treated tumors: 138 genes
